The list shows a part of the results.
How the values were obtained:
Assay in all cases: log2 fold change, soluble protein after heating vs DMSO (PISA); higher = thermal stabilisation; K562 lysate, 10 uM; active = over 0.2 and 3.5 SD of the protein, either way, in both replicates (recomputed)
ibrutinib = compound: C=CC(=O)N1CCC[C@@H](n2nc(-c3ccc(Oc4ccccc4)cc3)c3c(N)ncnc32)C1 [ibrutinib]
How it was run: (§1)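 Pellets of K562 cells were dounce-homogenised in PBS pH 7.4 with 1 mM MgCl2, and the crude extract was held at 1 mg/mL protein for a 30 min treatment with 10 μM compound. Aliquots were heated for 3 min over 48°C-58°C and pooled before NP-40 was added to 0.5% at 4°C. The supernatant from 21,000xg for 90 min was quantified by TMTpro 16plex LC-MS/MS with channel sums equalised. Values are reported from duplicates as log-two fold change in thermal stability relative to solvent controls.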

Sequences of proteins named here, by UniProt entry; tags and fusion partners are left off. A change or cut given only in a name is not applied to a line headed by its entry.
UniProt P30740: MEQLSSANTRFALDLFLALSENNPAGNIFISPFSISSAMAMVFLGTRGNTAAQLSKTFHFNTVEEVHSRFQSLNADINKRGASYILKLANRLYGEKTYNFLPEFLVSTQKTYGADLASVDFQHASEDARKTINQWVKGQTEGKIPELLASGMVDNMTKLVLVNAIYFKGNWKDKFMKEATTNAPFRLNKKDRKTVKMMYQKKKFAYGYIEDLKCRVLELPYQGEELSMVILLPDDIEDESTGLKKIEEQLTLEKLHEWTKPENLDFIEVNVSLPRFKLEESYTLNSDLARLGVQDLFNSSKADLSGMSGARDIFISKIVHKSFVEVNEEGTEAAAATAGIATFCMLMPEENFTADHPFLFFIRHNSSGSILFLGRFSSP
UniProt Q9H173: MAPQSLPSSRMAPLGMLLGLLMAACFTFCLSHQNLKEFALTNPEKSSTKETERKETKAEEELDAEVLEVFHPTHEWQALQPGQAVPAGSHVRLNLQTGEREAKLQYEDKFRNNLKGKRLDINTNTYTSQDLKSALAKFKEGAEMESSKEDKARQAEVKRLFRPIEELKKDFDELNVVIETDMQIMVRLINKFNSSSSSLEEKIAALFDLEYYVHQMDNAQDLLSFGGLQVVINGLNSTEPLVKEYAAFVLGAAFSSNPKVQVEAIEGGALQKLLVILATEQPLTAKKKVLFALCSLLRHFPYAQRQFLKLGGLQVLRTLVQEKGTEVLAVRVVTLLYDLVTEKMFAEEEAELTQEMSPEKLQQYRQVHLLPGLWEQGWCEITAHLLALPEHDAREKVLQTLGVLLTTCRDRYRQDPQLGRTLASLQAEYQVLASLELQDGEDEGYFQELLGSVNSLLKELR
UniProt Q8NEM2: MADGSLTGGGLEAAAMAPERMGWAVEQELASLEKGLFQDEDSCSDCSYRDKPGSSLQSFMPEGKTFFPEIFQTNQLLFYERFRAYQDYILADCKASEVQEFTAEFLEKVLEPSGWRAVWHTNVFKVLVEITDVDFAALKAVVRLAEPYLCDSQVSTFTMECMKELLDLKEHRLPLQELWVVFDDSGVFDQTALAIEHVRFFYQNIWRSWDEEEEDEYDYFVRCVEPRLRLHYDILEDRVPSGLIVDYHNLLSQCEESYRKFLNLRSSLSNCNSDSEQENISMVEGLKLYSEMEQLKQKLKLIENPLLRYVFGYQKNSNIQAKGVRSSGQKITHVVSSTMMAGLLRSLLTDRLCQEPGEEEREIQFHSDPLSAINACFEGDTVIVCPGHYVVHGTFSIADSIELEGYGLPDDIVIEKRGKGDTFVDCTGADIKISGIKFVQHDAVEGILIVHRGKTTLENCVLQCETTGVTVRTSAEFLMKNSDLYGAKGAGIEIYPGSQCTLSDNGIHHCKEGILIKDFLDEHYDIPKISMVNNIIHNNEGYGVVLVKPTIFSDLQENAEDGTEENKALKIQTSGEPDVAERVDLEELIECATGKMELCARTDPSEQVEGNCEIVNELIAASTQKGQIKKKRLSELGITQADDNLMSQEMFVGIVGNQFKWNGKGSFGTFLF
UniProt Q96BD8: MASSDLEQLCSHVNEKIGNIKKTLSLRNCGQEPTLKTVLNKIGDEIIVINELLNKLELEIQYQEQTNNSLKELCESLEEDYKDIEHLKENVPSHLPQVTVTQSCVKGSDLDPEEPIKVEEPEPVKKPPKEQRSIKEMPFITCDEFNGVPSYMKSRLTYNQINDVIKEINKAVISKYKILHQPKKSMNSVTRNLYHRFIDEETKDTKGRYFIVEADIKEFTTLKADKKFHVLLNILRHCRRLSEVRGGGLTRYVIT
UniProt Q12874: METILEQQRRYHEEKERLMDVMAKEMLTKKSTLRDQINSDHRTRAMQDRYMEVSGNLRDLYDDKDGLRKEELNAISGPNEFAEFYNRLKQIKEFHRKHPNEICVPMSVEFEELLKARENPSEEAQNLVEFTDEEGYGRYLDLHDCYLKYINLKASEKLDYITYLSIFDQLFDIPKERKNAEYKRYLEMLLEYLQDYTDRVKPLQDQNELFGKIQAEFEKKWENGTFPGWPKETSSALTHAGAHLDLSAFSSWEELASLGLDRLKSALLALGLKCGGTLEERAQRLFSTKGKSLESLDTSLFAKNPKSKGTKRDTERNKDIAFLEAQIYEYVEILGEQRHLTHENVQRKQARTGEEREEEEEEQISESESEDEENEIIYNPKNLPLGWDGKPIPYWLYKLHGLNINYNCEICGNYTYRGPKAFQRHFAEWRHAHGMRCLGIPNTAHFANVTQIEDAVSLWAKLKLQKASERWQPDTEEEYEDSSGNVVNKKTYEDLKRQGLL
UniProt Q9NRX5: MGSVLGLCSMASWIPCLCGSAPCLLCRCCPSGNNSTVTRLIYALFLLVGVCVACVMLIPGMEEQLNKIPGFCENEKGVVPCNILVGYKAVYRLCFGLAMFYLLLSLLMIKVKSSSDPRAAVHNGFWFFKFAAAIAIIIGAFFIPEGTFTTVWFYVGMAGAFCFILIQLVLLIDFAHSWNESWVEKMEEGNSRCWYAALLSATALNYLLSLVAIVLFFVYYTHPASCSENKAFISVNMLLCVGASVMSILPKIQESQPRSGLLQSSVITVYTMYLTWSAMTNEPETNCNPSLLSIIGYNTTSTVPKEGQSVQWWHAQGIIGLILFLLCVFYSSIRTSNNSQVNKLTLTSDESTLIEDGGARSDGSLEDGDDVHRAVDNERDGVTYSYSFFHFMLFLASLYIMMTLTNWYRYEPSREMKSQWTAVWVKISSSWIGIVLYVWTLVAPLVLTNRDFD
UniProt Q149N8: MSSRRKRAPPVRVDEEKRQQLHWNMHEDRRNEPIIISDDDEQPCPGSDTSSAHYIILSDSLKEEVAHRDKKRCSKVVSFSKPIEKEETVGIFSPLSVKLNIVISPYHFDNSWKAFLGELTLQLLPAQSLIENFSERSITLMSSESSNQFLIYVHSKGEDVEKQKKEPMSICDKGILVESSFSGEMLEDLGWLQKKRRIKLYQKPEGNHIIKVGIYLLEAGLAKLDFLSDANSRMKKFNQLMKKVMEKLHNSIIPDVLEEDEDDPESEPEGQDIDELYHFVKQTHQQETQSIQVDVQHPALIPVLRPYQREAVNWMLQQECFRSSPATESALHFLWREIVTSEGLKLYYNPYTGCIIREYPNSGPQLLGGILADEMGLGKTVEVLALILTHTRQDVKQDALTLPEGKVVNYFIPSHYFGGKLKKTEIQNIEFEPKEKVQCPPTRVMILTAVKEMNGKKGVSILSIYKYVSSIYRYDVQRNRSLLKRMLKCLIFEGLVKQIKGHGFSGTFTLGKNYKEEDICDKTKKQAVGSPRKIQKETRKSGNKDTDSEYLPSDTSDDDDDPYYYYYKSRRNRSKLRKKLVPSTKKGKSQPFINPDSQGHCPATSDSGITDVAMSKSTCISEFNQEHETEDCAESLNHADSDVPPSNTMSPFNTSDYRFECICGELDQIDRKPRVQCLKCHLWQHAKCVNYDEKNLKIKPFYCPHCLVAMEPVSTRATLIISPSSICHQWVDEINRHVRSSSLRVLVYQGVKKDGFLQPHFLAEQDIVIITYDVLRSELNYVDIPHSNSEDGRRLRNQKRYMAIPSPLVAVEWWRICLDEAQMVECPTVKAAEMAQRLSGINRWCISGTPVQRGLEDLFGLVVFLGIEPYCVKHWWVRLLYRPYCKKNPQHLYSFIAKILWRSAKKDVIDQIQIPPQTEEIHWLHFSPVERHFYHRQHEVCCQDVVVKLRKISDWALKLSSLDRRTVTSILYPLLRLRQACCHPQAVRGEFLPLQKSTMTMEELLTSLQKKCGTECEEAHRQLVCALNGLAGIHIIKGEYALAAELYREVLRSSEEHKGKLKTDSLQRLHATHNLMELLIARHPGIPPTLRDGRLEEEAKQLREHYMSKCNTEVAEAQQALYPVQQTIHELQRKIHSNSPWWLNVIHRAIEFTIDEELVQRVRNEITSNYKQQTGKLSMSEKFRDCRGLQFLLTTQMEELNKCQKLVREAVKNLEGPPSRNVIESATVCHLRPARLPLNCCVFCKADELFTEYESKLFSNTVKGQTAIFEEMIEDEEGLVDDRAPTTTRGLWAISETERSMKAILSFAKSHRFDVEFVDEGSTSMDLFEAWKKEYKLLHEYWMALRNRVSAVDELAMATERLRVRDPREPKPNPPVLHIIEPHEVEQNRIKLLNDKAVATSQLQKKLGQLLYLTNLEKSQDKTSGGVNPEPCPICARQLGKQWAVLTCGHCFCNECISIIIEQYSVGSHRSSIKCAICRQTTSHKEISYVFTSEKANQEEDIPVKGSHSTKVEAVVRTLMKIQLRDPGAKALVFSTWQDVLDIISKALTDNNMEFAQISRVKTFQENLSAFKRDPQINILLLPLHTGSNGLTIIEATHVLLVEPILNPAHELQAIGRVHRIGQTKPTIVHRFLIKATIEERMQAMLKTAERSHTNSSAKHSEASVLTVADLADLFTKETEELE
UniProt O75533, whole entry, looked up: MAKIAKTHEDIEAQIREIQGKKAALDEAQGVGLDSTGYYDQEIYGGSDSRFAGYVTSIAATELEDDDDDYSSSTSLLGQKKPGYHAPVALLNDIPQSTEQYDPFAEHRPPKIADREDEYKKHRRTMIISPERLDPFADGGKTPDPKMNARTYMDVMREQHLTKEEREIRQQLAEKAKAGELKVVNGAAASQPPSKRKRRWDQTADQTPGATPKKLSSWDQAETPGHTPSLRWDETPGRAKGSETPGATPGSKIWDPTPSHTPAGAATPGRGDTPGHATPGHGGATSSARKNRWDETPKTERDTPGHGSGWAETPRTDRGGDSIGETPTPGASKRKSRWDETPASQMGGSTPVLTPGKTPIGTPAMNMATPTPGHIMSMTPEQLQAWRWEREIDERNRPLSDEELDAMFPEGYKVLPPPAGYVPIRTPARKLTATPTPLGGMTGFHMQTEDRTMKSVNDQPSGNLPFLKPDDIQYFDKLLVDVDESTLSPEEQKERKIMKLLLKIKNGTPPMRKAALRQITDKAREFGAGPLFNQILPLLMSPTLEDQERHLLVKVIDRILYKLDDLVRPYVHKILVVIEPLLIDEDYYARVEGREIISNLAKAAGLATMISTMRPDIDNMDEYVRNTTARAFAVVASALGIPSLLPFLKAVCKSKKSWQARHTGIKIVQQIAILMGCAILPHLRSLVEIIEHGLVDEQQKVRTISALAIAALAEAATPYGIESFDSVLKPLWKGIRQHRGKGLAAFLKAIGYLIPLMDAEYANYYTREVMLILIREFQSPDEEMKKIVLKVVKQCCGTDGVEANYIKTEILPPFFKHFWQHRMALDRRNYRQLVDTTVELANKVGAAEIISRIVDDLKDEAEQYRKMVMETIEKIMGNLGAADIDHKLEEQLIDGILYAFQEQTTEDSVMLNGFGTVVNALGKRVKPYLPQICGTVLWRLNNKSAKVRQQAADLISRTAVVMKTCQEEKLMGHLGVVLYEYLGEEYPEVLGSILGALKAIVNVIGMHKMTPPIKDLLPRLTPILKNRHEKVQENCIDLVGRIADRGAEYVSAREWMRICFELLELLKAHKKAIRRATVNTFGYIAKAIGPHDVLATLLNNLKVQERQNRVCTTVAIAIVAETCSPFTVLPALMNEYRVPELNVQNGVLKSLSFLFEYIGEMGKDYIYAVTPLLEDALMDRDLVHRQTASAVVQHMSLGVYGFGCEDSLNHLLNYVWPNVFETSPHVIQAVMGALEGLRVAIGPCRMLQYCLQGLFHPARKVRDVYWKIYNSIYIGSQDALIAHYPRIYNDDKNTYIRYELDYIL
UniProt P05543: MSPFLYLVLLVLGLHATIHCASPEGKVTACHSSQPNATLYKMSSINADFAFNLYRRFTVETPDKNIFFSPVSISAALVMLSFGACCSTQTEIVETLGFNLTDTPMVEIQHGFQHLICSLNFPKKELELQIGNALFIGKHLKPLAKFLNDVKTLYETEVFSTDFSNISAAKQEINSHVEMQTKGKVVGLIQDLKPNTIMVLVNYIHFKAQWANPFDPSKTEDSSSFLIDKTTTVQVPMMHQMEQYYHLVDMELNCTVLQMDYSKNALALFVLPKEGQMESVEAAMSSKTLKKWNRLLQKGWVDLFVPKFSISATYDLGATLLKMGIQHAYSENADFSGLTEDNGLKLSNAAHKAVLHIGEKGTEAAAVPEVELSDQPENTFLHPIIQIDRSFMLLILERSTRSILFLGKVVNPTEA
UniProt O60239: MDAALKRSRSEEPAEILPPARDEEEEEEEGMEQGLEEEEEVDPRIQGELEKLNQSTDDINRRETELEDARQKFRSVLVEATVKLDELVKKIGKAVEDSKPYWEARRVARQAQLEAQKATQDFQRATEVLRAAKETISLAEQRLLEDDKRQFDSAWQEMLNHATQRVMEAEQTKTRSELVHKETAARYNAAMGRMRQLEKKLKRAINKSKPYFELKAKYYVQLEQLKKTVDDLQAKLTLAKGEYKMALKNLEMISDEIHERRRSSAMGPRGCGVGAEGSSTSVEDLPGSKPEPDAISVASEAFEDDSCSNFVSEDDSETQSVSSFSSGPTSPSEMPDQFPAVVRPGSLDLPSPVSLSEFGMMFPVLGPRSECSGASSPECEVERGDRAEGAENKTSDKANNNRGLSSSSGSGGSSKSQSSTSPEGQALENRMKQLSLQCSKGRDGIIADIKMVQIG

[1] = compound: CC(=O)c1cnc2ccc(-c3cc(Cl)c(O)c(Cl)c3)nc2c1N[C@H]1CC[C@H](CN(C)C)CC1
How it was run: as §1

ralimetinib = compound: CC(C)(C)Cn1c(N)nc2ccc(-c3[nH]c(C(C)(C)C)nc3-c3ccc(F)cc3)nc21 [ralimetinib]
How it was run: as §1

[2] = compound: CC(C)(O)CC(=O)NCCn1ccc2ncnc(Nc3ccc(Oc4cccc(C(F)(F)F)c4)c(Cl)c3)c21
How it was run: as §1

[3] = compound: CC(C)C1=C2N=C(C=C(N2N=C1)NCC3=CC=CC=C3)NCCCCCCN
How it was run: as §1

[4] = compound: CC1=C(C(CC(=O)N1)C2=CC=C(C=C2)C(F)(F)F)C(=O)NC3=C(C=C4C(=C3)C=NN4)F
How it was run: as §1

[5] = compound: CC1=C(C2=C(C=C1)C(=O)C3=CC=CC=C3N2CCCN)C
How it was run: as §1

[6] = compound: CC1=C(C=C(C=C1)NC(=O)C2=CC(=CC=C2)C(C)(C)C#N)NC3=CC4=C(C=C3)N=CN(C4=O)C
How it was run: as §1

[7] = compound: CC1=C(C=C(C=C1)NC(=O)C2=CC(=CC=C2)N(C)C)NC(=O)C3=CC=C(C=C3)O
How it was run: as §1

[8] = compound: CC1=CC=C(C=C1)SC2=C3C=C(SC3=CN=C2)C(=O)N
How it was run: as §1

Measured: log2 fold change

SERPINB1 (UniProt P30740)
inactive: ibrutinib 0.015 | [1] -0.015 | ralimetinib -0.013 | [2] -0.031 | [3] -0.007 | [4] -0.014 | [5] 0.015 | [6] -0.008 | [7] -0.013 | [8] 0.007

SHTN1 (UniProt A0MZ66)
inactive: ibrutinib 0.003 | [1] -0.003 | ralimetinib -0.003 | [2] 0.003 | [3] -0.009 | [4] 0 | [5] -0.031 | [6] 0.023 | [7] 0.004 | [8] -0.004

SIRT5 (UniProt Q9NXA8)
inactive: ibrutinib 0.056 | [1] 0.017 | ralimetinib 0.029 | [2] 0.039 | [3] 0.002 | [4] 0.004 | [5] 0.029 | [6] 0.008 | [7] 0.013 | [8] -0.035

SIL1 (UniProt Q9H173)
inactive: ibrutinib 0.005 | [1] -0.015 | ralimetinib 0.063 | [2] -0.104 | [3] -0.012 | [4] 0.046 | [5] -0.019 | [6] -0.027 | [7] -0.034 | [8] -0.011

SLC10A7 isoform 1 (UniProt Q0GE19)
inactive: ibrutinib 0.078 | [1] -0.014 | ralimetinib -0.015 | [2] -0.056 | [3] -0.047 | [4] -0.015 | [5] -0.019 | [6] -0.051 | [7] 0.015 | [8] 0.046

SF3B6 (UniProt Q9Y3B4)
inactive: ibrutinib 0.036 | [1] 0.004 | ralimetinib -0.001 | [2] -0.017 | [3] -0.002 | [4] 0.043 | [5] 0.003 | [6] 0.002 | [7] 0.024 | [8] -0.007

SH3BGR (UniProt P55822)
inactive: ibrutinib -0.004 | [1] -0.023 | ralimetinib -0.023 | [2] 0.025 | [3] -0.062 | [4] 0 | [5] 0.079 | [6] 0.047 | [7] 0.021 | [8] -0.014

SERPINB13 (UniProt Q9UIV8)
inactive: ibrutinib -0.139

SGPL1 (UniProt O95470)
inactive: ibrutinib 0.034 | [1] 0.046 | ralimetinib 0.048 | [2] -0.029 | [3] -0.051 | [4] -0.003 | [5] -0.121 | [6] -0.003 | [7] 0.033 | [8] 0.038

SH2B1 (UniProt Q9NRF2)
inactive: ibrutinib 0.035 | [1] -0.043 | ralimetinib -0.02 | [2] -0.103 | [3] -0.099 | [4] -0.046 | [5] -0.048 | [6] -0.051 | [7] 0.127 | [8] -0.04

SHCBP1 (UniProt Q8NEM2)
inactive: ibrutinib -0.04 | [1] 0.023 | ralimetinib 0.026 | [2] 0.031 | [3] 0.012 | [4] 0.009 | [5] 0.002 | [6] -0.008 | [7] 0.056 | [8] -0.041

SH3BP1 (UniProt Q9Y3L3)
inactive: ibrutinib -0.012 | [1] 0.025 | ralimetinib -0.051 | [2] 0.01 | [3] -0.013 | [4] -0.02 | [5] -0.031 | [6] 0.081 | [7] -0.031 | [8] -0.02

SIX5 (UniProt Q8N196)
inactive: ibrutinib -0.021 | [1] 0.009 | ralimetinib -0.023 | [2] -0.046 | [3] -0.042 | [4] -0.061 | [5] 0.011 | [6] 0.017 | [7] 0.13 | [8] 0.021

SKA1 (UniProt Q96BD8)
inactive: ibrutinib 0.002 | [1] 0.033 | ralimetinib -0.023 | [2] -0.017 | [3] 0.044 | [4] 0.014 | [5] 0.066 | [6] -0.017 | [7] 0.033 | [8] 0.007

SF3A3 (UniProt Q12874)
inactive: ibrutinib -0.032 | [1] 0.024 | ralimetinib -0.019 | [2] -0.006 | [3] 0.024 | [4] 0 | [5] 0.022 | [6] -0.054 | [7] 0.021 | [8] 0.004

SHMT2 (UniProt P34897)
inactive: ibrutinib 0.026 | [1] 0.016 | ralimetinib 0.006 | [2] -0.012 | [3] -0.019 | [4] -0.019 | [5] -0.018 | [6] 0.016 | [7] -0.023 | [8] 0.008

SERINC1 (UniProt Q9NRX5)
inactive: ibrutinib 0 | [1] -0.04 | ralimetinib 0.03 | [2] -0.084 | [3] 0.049 | [4] -0.101 | [5] -0.012 | [6] 0.048 | [7] -0.03 | [8] -0.053

SH3GLB1 isoform 2 (UniProt Q9Y371)
inactive: ibrutinib 0.049 | [1] 0.009 | ralimetinib 0.016 | [2] 0.028 | [3] 0.024 | [4] 0.047 | [5] 0.008 | [6] -0.024 | [7] -0.002 | [8] -0.017

SERBP1 (UniProt Q8NC51)
inactive: ibrutinib 0.006 | [1] -0.019 | ralimetinib -0.046 | [2] -0.013 | [3] 0.007 | [4] -0.03 | [5] 0.001 | [6] -0.023 | [7] -0.01 | [8] -0.007

SFPQ (UniProt P23246)
inactive: ibrutinib 0.007 | [1] -0.006 | ralimetinib -0.005 | [2] 0.007 | [3] -0.008 | [4] -0.008 | [5] 0.006 | [6] -0.008 | [7] 0.005 | [8] 0.007

SHPRH (UniProt Q149N8)
inactive: ibrutinib 0.053 | [1] 0.09 | ralimetinib 0 | [2] -0.147 | [3] 0.097 | [4] -0.002 | [5] 0.032 | [6] -0.034 | [7] -0.014 | [8] 0.027

SHMT2 (UniProt G3V2Y4)
inactive: ibrutinib 0.012

SERPINB6, A0A087X1N8
inactive: ibrutinib 0.022 | [1] -0.014 | ralimetinib -0.02 | [2] -0.011 | [3] -0.026 | [4] 0 | [5] -0.01 | [6] -0.01 | [7] 0.007 | [8] -0.021

SFSWAP isoform 2 (UniProt Q12872)
inactive: ibrutinib 0.028 | [1] -0.006 | ralimetinib 0.013 | [2] -0.023 | [3] 0.005 | [4] 0 | [5] -0.006 | [6] 0.009 | [7] 0.038 | [8] 0.097

SGF29 (UniProt Q96ES7)
inactive: ibrutinib 0 | [1] -0.018 | ralimetinib 0.004 | [2] -0.004 | [3] -0.008 | [4] -0.007 | [5] 0.033 | [6] 0.015 | [7] 0.041 | [8] -0.026

SF3B1 (UniProt O75533)
inactive: ibrutinib -0.027 | [1] -0.002 | ralimetinib 0.018 | [2] -0.017 | [3] 0.011 | [4] -0.022 | [5] -0.006 | [6] 0.019 | [7] 0 | [8] 0.016

SERPINA7 (UniProt P05543)
inactive: ibrutinib 0.045

SETD3 (UniProt Q86TU7)
inactive: ibrutinib -0.001 | [1] -0.012 | ralimetinib -0.004 | [2] 0.015 | [3] -0.009 | [4] 0.027 | [5] 0 | [6] -0.022 | [7] 0.037 | [8] 0.012

SETDB1 (UniProt Q15047)
inactive: ibrutinib 0.005 | [1] -0.013 | ralimetinib -0.043 | [2] -0.063 | [3] -0.003 | [4] 0.008 | [5] -0.028 | [6] 0.048 | [7] -0.014 | [8] -0.053

SFR1 isoform 2 (UniProt Q86XK3)
inactive: ibrutinib 0.023 | [1] -0.006 | ralimetinib 0.003 | [2] -0.012 | [3] -0.005 | [4] -0.006 | [5] 0.041 | [6] 0.026 | [7] 0.06 | [8] 0.016

SIRT2 (UniProt Q8IXJ6)
inactive: ibrutinib -0.01 | [1] -0.044 | ralimetinib 0.006 | [2] 0.087 | [3] -0.015 | [4] 0.043 | [5] 0 | [6] -0.009 | [7] -0.014 | [8] 0.003

Reprinted from the results shown (two entries):
SETD3 (UniProt Q86TU7)
inactive: ibrutinib -0.001 | [1] -0.012 | ralimetinib -0.004 | [2] 0.015 | [3] -0.009 | [4] 0.027 | [5] 0 | [6] -0.022 | [7] 0.037 | [8] 0.012

SETDB1 (UniProt Q15047)
inactive: ibrutinib 0.005 | [1] -0.013 | ralimetinib -0.043 | [2] -0.063 | [3] -0.003 | [4] 0.008 | [5] -0.028 | [6] 0.048 | [7] -0.014 | [8] -0.053

Following part:

SH3BP5 (UniProt O60239)
inactive: ibrutinib -0.034 | [1] -0.056 | ralimetinib -0.009 | [2] -0.094 | [3] -0.045 | [4] -0.038 | [5] 0.007 | [6] -0.004 | [7] -0.019 | [8] -0.072

— the supplement of paper PMC10849652
